Measured values taken from the supplement of paper PMC8728848.
The list shows a part of the results.

Key:
Test in all cases: glycan array binding signal (z-score within array); higher = stronger binding
Details in all cases: glycan notation: IUPAC condensed, linker removed
Fuc(a1-2)Gal = molecular target: Fuc(a1-2)Gal
Procedure, shortened: (§1)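 Glycan array data were curated from 3228 arrays in the Consortium for Functional Glycomics database and kept only where the protein sequence was available. Glycan names were converted to IUPAC-condensed notation, and columns mapping to the same glycan were averaged. The binding signal is a within-array Z-score, averaged across arrays of the same protein sequence at different concentrations or buffers and across linkers. Negative Z-scores can be read as non-binding.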

Fuc(a1-2)Gal(b1-3)GalNAc = molecular target: Fuc(a1-2)Gal(b1-3)GalNAc
Procedure, shortened: as §1

[1] = molecular target: Fuc(a1-2)Gal(b1-3)GalNAc(a1-3)[Fuc(a1-2)]Gal(b1-4)Glc
Procedure, shortened: as §1

[2] = molecular target: Fuc(a1-2)Gal(b1-3)GalNAc(a1-3)[Fuc(a1-2)]Gal(b1-4)GlcNAc
Procedure, shortened: as §1

[3] = molecular target: Fuc(a1-2)Gal(b1-3)GalNAc(b1-3)Gal
Procedure, shortened: as §1

[4] = molecular target: Fuc(a1-2)Gal(b1-3)GalNAc(b1-3)Gal(a1-4)Gal(b1-4)Glc
Procedure, shortened: as §1

[5] = molecular target: Fuc(a1-2)Gal(b1-3)GalNAc(b1-4)[Neu5Ac(a2-3)]Gal(b1-4)Glc
Procedure, shortened: as §1

Fuc(a1-2)Gal(b1-3)GlcNAc = molecular target: Fuc(a1-2)Gal(b1-3)GlcNAc
Procedure, shortened: as §1

[6] = molecular target: Fuc(a1-2)Gal(b1-3)GlcNAc(b1-2)Man(a1-3)[Fuc(a1-2)Gal(b1-3)GlcNAc(b1-2)Man(a1-6)]Man(b1-4)GlcNAc(b1-4)GlcNAc
Procedure, shortened: as §1

[7] = molecular target: Fuc(a1-2)Gal(b1-3)GlcNAc(b1-2)Man(a1-3)[Fuc(a1-2)Gal(b1-3)GlcNAc(b1-2)Man(a1-6)]Man(b1-4)GlcNAc(b1-4)[Fuc(a1-6)]GlcNAc
Procedure, shortened: as §1

[8] = molecular target: Fuc(a1-2)Gal(b1-3)GlcNAc(b1-3)Gal(b1-4)Glc
Procedure, shortened: as §1

[9] = molecular target: Fuc(a1-2)Gal(b1-3)GlcNAc(b1-3)GalNAc
Procedure, shortened: as §1

[10] = molecular target: Fuc(a1-2)Gal(b1-3)GlcNAc(b1-3)[Fuc(a1-2)Gal(b1-3)GlcNAc(b1-6)]GalNAc
Procedure, shortened: as §1

[11] = molecular target: Fuc(a1-2)Gal(b1-3)GlcNAc(b1-3)[Gal(b1-4)GlcNAc(b1-6)]Gal(b1-4)Glc
Procedure, shortened: as §1

[12] = molecular target: Fuc(a1-2)Gal(b1-3)GlcNAc(b1-3)[Neu5Ac(a2-6)Gal(b1-4)GlcNAc(b1-6)]Gal(b1-4)Glc
Procedure, shortened: as §1

[13] = molecular target: Fuc(a1-2)Gal(b1-3)GlcNAc6S
Procedure, shortened: as §1

[14] = molecular target: Fuc(a1-2)Gal(b1-3)[Fuc(a1-4)]GlcNAc
Procedure, shortened: as §1

[15] = molecular target: Fuc(a1-2)Gal(b1-3)[Fuc(a1-4)]GlcNAc(b1-2)Man(a1-3)[Fuc(a1-2)Gal(b1-3)[Fuc(a1-4)]GlcNAc(b1-2)Man(a1-3)]Man(b1-4)GlcNAc(b1-4)GlcNAc
Procedure, shortened: as §1

[16] = molecular target: Fuc(a1-2)Gal(b1-3)[Fuc(a1-4)]GlcNAc(b1-2)Man(a1-3)[Fuc(a1-2)Gal(b1-3)[Fuc(a1-4)]GlcNAc(b1-2)Man(a1-6)]Man(b1-4)GlcNAc(b1-4)[Fuc(a1-6)]GlcNAc(b1-4)[Fuc(a1-6)]GlcNAc
Procedure, shortened: as §1

[17] = molecular target: Fuc(a1-2)Gal(b1-3)[Fuc(a1-4)]GlcNAc(b1-3)[Fuc(a1-3)[Gal(b1-4)]GlcNAc(b1-6)]Gal(b1-4)Glc
Procedure, shortened: as §1

[18] = molecular target: Fuc(a1-2)Gal(b1-3)[Fuc(a1-4)]GlcNAc(b1-3)[Gal(b1-4)GlcNAc(b1-6)]Gal(b1-4)Glc
Procedure, shortened: as §1

[19] = molecular target: Fuc(a1-2)Gal(b1-4)Fuc(a1-3)]GlcNAc(b1-2)Man(a1-3)[Fuc(a1-2)Gal(b1-4)[Fuc(a1-3)]GlcNAc(b1-2)Man(a1-6)]Man(b1-4)GlcNAc(b1-4)GlcNAc
Procedure, shortened: as §1

Fuc(a1-2)Gal(b1-4)Glc = molecular target: Fuc(a1-2)Gal(b1-4)Glc
Procedure, shortened: as §1

Fuc(a1-2)Gal(b1-4)Glc6S = molecular target: Fuc(a1-2)Gal(b1-4)Glc6S
Procedure, shortened: as §1

Fuc(a1-2)Gal(b1-4)GlcNAc = molecular target: Fuc(a1-2)Gal(b1-4)GlcNAc
Procedure, shortened: as §1

[20] = molecular target: Fuc(a1-2)Gal(b1-4)GlcNAc(b1-2)Man
Procedure, shortened: as §1

[21] = molecular target: Fuc(a1-2)Gal(b1-4)GlcNAc(b1-2)Man(a1-3)[Fuc(a1-2)Gal(b1-4)GlcNAc(b1-2)Man(a1-6)]Man(b1-4)GlcNAc(b1-4)GlcNAc
Procedure, shortened: as §1

[22] = molecular target: Fuc(a1-2)Gal(b1-4)GlcNAc(b1-2)Man(a1-3)[Fuc(a1-2)Gal(b1-4)GlcNAc(b1-2)Man(a1-6)]Man(b1-4)GlcNAc(b1-4)[Fuc(a1-6)]GlcNAc
Procedure, shortened: as §1

[23] = molecular target: Fuc(a1-2)Gal(b1-4)GlcNAc(b1-2)[Fuc(a1-2)Gal(b1-4)GlcNAc(b1-4)]Man(a1-3)[Fuc(a1-2)Gal(b1-4)GlcNAc(b1-2)Man(a1-6)]Man(b1-4)GlcNAc(b1-4)GlcNAc
Procedure, shortened: as §1

[24] = molecular target: Fuc(a1-2)Gal(b1-4)GlcNAc(b1-3)Gal(b1-4)GlcNAc
Procedure, shortened: as §1

B1: AT5G24760(45) (Arabidopsis thaliana), Q8LEB2 (protein)
chain: MSASSSSFEQPQVITCNAAVAWRAGEPLVMEEVEVSPPQPLEIRIKVVCTSLCRSDLSAWESQSLLPRIFGHEAAGIVESIGEGVTEFEKGDHVLAVFTGECGSCRHCISGKSNMCQVLGMERKGLMHSDQKTRFSIKGKPVYHYCAVSSFSEYTVVHSGCAVKVDPLAPLHKICLLSCGVAAGLGAAWNVADVQKGSSVVIFGLGTVGLSVAQGAKLRGAAQILGVDINPAKAEQAKTFGVTDFINSNDLSEPIPQVIKRMTGGGADFSFECVGDTGIATTALQSCSDGWGMTVTLGVPKAKPEVSAHYGLFLSGKSLKGTLFGGWKPKSDLPSLIDKYMNKEIMIDEFITHNLSFDEINKAFVLMREGKCLRCVLHMPK
**Q.** What does the source list for B1?
**A.** glycan array binding signal (z-score) (Fuc(a1-2)Gal): 1.93; glycan array binding signal (z-score) (Fuc(a1-2)Gal(b1-3)GalNAc): 0.024; glycan array binding signal (z-score) [1]: -0.218; glycan array binding signal (z-score) [2]: -0.699; glycan array binding signal (z-score) [3]: 0.643; glycan array binding signal (z-score) [4]: -0.051; glycan array binding signal (z-score) [5]: -0.481; glycan array binding signal (z-score) (Fuc(a1-2)Gal(b1-3)GlcNAc): -0.229; glycan array binding signal (z-score) [6]: 0.206; glycan array binding signal (z-score) [7]: 0.853; glycan array binding signal (z-score) [8]: -0.038; glycan array binding signal (z-score) [9]: -0.071; glycan array binding signal (z-score) [10]: -0.267; glycan array binding signal (z-score) [11]: -0.238; glycan array binding signal (z-score) [12]: -0.647; glycan array binding signal (z-score) [13]: 0.053; glycan array binding signal (z-score) [14]: -0.915; glycan array binding signal (z-score) [15]: 1.53; glycan array binding signal (z-score) [16]: -0.101; glycan array binding signal (z-score) [17]: -0.903; glycan array binding signal (z-score) [18]: -1.1; glycan array binding signal (z-score) [19]: 0.055; glycan array binding signal (z-score) (Fuc(a1-2)Gal(b1-4)Glc): 1.45; glycan array binding signal (z-score) (Fuc(a1-2)Gal(b1-4)Glc6S): 0.082; glycan array binding signal (z-score) (Fuc(a1-2)Gal(b1-4)GlcNAc): 0.67; glycan array binding signal (z-score) [20]: 0.888; glycan array binding signal (z-score) [21]: -0.974; glycan array binding signal (z-score) [22]: -0.386; glycan array binding signal (z-score) [23]: -0.052; glycan array binding signal (z-score) [24]: -0.16
